This note sets out measurements from the supplement of paper PMC11546906.

Where a name gives a salt, the structure may show the parent alone. Some of the results follow. Single values are uncertain here, since repeats match poorly.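 Screen of FDA-approved drugs, each combined with colistin at one-eighth of its MIC, against a multidrug-resistant mcr-1-positive clinical E. coli isolate; growth read as OD600 after 24 h. Bacteria without drug were the growth control and plain broth the blank. A combination counted as active when OD600 fell below 0.2.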

This assay has as its system Escherichia coli 42 (mcr-1-positive clinical isolate). Kind of assay: OD600 after 24 h growth with compound plus colistin (absorbance units (OD600)); higher = more bacterial growth (less inhibition). To be noted: first compound 25 µM; colistin concentration 0.5 ug/mL; incubation time 24 h; 37 °C.
Regarding `O=C(Nc1ccc([N+](=O)[O-])cc1Cl)c1cc(Cl)ccc1O` [Niclosamide] + CCC(C)CCCC(=O)N[C@@H](CCN)C(=O)N[C@H](C(=O)N[C@@H](CCN)C(=O)N[C@H]1CCNC(=O)[C@H]([C@@H](C)O)NC(=O)[C@H](CCN)NC(=O)[C@H](CCN)NC(=O)[C@H](CC(C)C)NC(=O)[C@@H](CC(C)C)NC(=O)[C@H](CCN)NC1=O)[C@@H](C)O [colistin], the OD600 is active: 0.038.
With `C#Cc1cccc(Nc2ncnc3cc(OCCOC)c(OCCOC)cc23)c1` [Erlotinib hydrochloride] + CCC(C)CCCC(=O)N[C@@H](CCN)C(=O)N[C@H](C(=O)N[C@@H](CCN)C(=O)N[C@H]1CCNC(=O)[C@H]([C@@H](C)O)NC(=O)[C@H](CCN)NC(=O)[C@H](CCN)NC(=O)[C@H](CC(C)C)NC(=O)[C@@H](CC(C)C)NC(=O)[C@H](CCN)NC1=O)[C@@H](C)O [colistin], the OD600 was inactive: 0.99.
Under `NC(=O)c1ncn([C@@H]2O[C@H](CO)[C@@H](O)[C@H]2O)n1` [Ribavirin] + CCC(C)CCCC(=O)N[C@@H](CCN)C(=O)N[C@H](C(=O)N[C@@H](CCN)C(=O)N[C@H]1CCNC(=O)[C@H]([C@@H](C)O)NC(=O)[C@H](CCN)NC(=O)[C@H](CCN)NC(=O)[C@H](CC(C)C)NC(=O)[C@@H](CC(C)C)NC(=O)[C@H](CCN)NC1=O)[C@@H](C)O [colistin] stands inactive: 1.18; under `CC(C)OC(=O)CCC/C=C\C[C@@H]1[C@@H](CC[C@@H](O)CCc2ccccc2)[C@H](O)C[C@@H]1O` [Latanoprost] + CCC(C)CCCC(=O)N[C@@H](CCN)C(=O)N[C@H](C(=O)N[C@@H](CCN)C(=O)N[C@H]1CCNC(=O)[C@H]([C@@H](C)O)NC(=O)[C@H](CCN)NC(=O)[C@H](CCN)NC(=O)[C@H](CC(C)C)NC(=O)[C@@H](CC(C)C)NC(=O)[C@H](CCN)NC1=O)[C@@H](C)O [colistin], inactive: 1.17; under `CSc1ccc(OCc2ncc([N+](=O)[O-])n2C)cc1` [Fexinidazole] + CCC(C)CCCC(=O)N[C@@H](CCN)C(=O)N[C@H](C(=O)N[C@@H](CCN)C(=O)N[C@H]1CCNC(=O)[C@H]([C@@H](C)O)NC(=O)[C@H](CCN)NC(=O)[C@H](CCN)NC(=O)[C@H](CC(C)C)NC(=O)[C@@H](CC(C)C)NC(=O)[C@H](CCN)NC1=O)[C@@H](C)O [colistin], inactive: 0.975.
Regarding `COc1ccc2[nH]c(SCc3ncc(C)c(OC)c3C)nc2c1` [Omeprazole sulfide] + CCC(C)CCCC(=O)N[C@@H](CCN)C(=O)N[C@H](C(=O)N[C@@H](CCN)C(=O)N[C@H]1CCNC(=O)[C@H]([C@@H](C)O)NC(=O)[C@H](CCN)NC(=O)[C@H](CCN)NC(=O)[C@H](CC(C)C)NC(=O)[C@@H](CC(C)C)NC(=O)[C@H](CCN)NC1=O)[C@@H](C)O [colistin], the OD600 was inactive: 1.03.
Turning to `CN(C)c1ccc(O)c2c1C[C@H]1C[C@H]3[C@H](N(C)C)C(=O)C(C(N)=O)=C(O)[C@@]3(O)C(=O)C1=C2O` [Minocycline hydrochloride] + CCC(C)CCCC(=O)N[C@@H](CCN)C(=O)N[C@H](C(=O)N[C@@H](CCN)C(=O)N[C@H]1CCNC(=O)[C@H]([C@@H](C)O)NC(=O)[C@H](CCN)NC(=O)[C@H](CCN)NC(=O)[C@H](CC(C)C)NC(=O)[C@@H](CC(C)C)NC(=O)[C@H](CCN)NC1=O)[C@@H](C)O [colistin], the OD600 is active: 0.04.
Under `CCCN[C@H]1CCc2nc(N)sc2C1` [Pramipexole dihydrochloride hydrate] + CCC(C)CCCC(=O)N[C@@H](CCN)C(=O)N[C@H](C(=O)N[C@@H](CCN)C(=O)N[C@H]1CCNC(=O)[C@H]([C@@H](C)O)NC(=O)[C@H](CCN)NC(=O)[C@H](CCN)NC(=O)[C@H](CC(C)C)NC(=O)[C@@H](CC(C)C)NC(=O)[C@H](CCN)NC1=O)[C@@H](C)O [colistin] stands inactive: 1.06; under `O=c1ccc2ccc(OCCCCN3CCN(c4cccc5sccc45)CC3)cc2[nH]1` [Brexpiprazole] + CCC(C)CCCC(=O)N[C@@H](CCN)C(=O)N[C@H](C(=O)N[C@@H](CCN)C(=O)N[C@H]1CCNC(=O)[C@H]([C@@H](C)O)NC(=O)[C@H](CCN)NC(=O)[C@H](CCN)NC(=O)[C@H](CC(C)C)NC(=O)[C@@H](CC(C)C)NC(=O)[C@H](CCN)NC1=O)[C@@H](C)O [colistin], inactive: 0.914; under `C[N+](C)(C)C[C@H](O)CC(=O)[O-]` [L-Carnitine] + CCC(C)CCCC(=O)N[C@@H](CCN)C(=O)N[C@H](C(=O)N[C@@H](CCN)C(=O)N[C@H]1CCNC(=O)[C@H]([C@@H](C)O)NC(=O)[C@H](CCN)NC(=O)[C@H](CCN)NC(=O)[C@H](CC(C)C)NC(=O)[C@@H](CC(C)C)NC(=O)[C@H](CCN)NC1=O)[C@@H](C)O [colistin], inactive: 1.1.
Under `N[C@@H](C(=O)N[C@@H]1C(=O)N2C(C(=O)O)=C(Cl)CS[C@H]12)c1ccccc1` [Cefaclor monohydrate] + CCC(C)CCCC(=O)N[C@@H](CCN)C(=O)N[C@H](C(=O)N[C@@H](CCN)C(=O)N[C@H]1CCNC(=O)[C@H]([C@@H](C)O)NC(=O)[C@H](CCN)NC(=O)[C@H](CCN)NC(=O)[C@H](CC(C)C)NC(=O)[C@@H](CC(C)C)NC(=O)[C@H](CCN)NC1=O)[C@@H](C)O [colistin] stands inactive: 0.876.
For the molecule `CC(=O)[C@@]1(O)CC[C@H]2[C@@H]3CCC4=CC(=O)CC[C@]4(C)[C@H]3CC[C@@]21C` [17α-Hydroxyprogesterone] + CCC(C)CCCC(=O)N[C@@H](CCN)C(=O)N[C@H](C(=O)N[C@@H](CCN)C(=O)N[C@H]1CCNC(=O)[C@H]([C@@H](C)O)NC(=O)[C@H](CCN)NC(=O)[C@H](CCN)NC(=O)[C@H](CC(C)C)NC(=O)[C@@H](CC(C)C)NC(=O)[C@H](CCN)NC1=O)[C@@H](C)O [colistin], the OD600 is inactive: 1.13.
Under `COc1cc(CNC(=O)CCCC/C=C\C(C)C)ccc1O` [(Z)-Capsaicin] + CCC(C)CCCC(=O)N[C@@H](CCN)C(=O)N[C@H](C(=O)N[C@@H](CCN)C(=O)N[C@H]1CCNC(=O)[C@H]([C@@H](C)O)NC(=O)[C@H](CCN)NC(=O)[C@H](CCN)NC(=O)[C@H](CC(C)C)NC(=O)[C@@H](CC(C)C)NC(=O)[C@H](CCN)NC1=O)[C@@H](C)O [colistin] stands inactive: 0.891; under `Cn1cnc([N+](=O)[O-])c1Sc1ncnc2[nH]cnc12` [Azathioprine] + CCC(C)CCCC(=O)N[C@@H](CCN)C(=O)N[C@H](C(=O)N[C@@H](CCN)C(=O)N[C@H]1CCNC(=O)[C@H]([C@@H](C)O)NC(=O)[C@H](CCN)NC(=O)[C@H](CCN)NC(=O)[C@H](CC(C)C)NC(=O)[C@@H](CC(C)C)NC(=O)[C@H](CCN)NC1=O)[C@@H](C)O [colistin], inactive: 1.17.
For `O=C(O[C@H]1CN2CCC1CC2)N1CCc2ccccc2[C@@H]1c1ccccc1` [Solifenacin succinate] + CCC(C)CCCC(=O)N[C@@H](CCN)C(=O)N[C@H](C(=O)N[C@@H](CCN)C(=O)N[C@H]1CCNC(=O)[C@H]([C@@H](C)O)NC(=O)[C@H](CCN)NC(=O)[C@H](CCN)NC(=O)[C@H](CC(C)C)NC(=O)[C@@H](CC(C)C)NC(=O)[C@H](CCN)NC1=O)[C@@H](C)O [colistin], the OD600 was inactive: 0.962.
On to `CN(C)CCOC(C)(c1ccccc1)c1ccccn1` (centres undefined) [Doxylamine succinate] + CCC(C)CCCC(=O)N[C@@H](CCN)C(=O)N[C@H](C(=O)N[C@@H](CCN)C(=O)N[C@H]1CCNC(=O)[C@H]([C@@H](C)O)NC(=O)[C@H](CCN)NC(=O)[C@H](CCN)NC(=O)[C@H](CC(C)C)NC(=O)[C@@H](CC(C)C)NC(=O)[C@H](CCN)NC1=O)[C@@H](C)O [colistin], for which the OD600 is inactive: 1.06.
Under `Cc1ccc(-c2cc(C(F)(F)F)nn2-c2ccc(S(N)(=O)=O)cc2)cc1` [Celecoxib] + CCC(C)CCCC(=O)N[C@@H](CCN)C(=O)N[C@H](C(=O)N[C@@H](CCN)C(=O)N[C@H]1CCNC(=O)[C@H]([C@@H](C)O)NC(=O)[C@H](CCN)NC(=O)[C@H](CCN)NC(=O)[C@H](CC(C)C)NC(=O)[C@@H](CC(C)C)NC(=O)[C@H](CCN)NC1=O)[C@@H](C)O [colistin] stands inactive: 1.08.
The result for `O=C(C1CCCCC1)N1CC(=O)N2CCc3ccccc3C2C1` (centres undefined) [Praziquantel] + CCC(C)CCCC(=O)N[C@@H](CCN)C(=O)N[C@H](C(=O)N[C@@H](CCN)C(=O)N[C@H]1CCNC(=O)[C@H]([C@@H](C)O)NC(=O)[C@H](CCN)NC(=O)[C@H](CCN)NC(=O)[C@H](CC(C)C)NC(=O)[C@@H](CC(C)C)NC(=O)[C@H](CCN)NC1=O)[C@@H](C)O [colistin] reads inactive: 0.74; that for `CC1(C)S[C@@H]2[C@H](NC(=O)Cc3ccccc3)C(=O)N2[C@H]1C(=O)O` [Penicillin G sodium salt] + CCC(C)CCCC(=O)N[C@@H](CCN)C(=O)N[C@H](C(=O)N[C@@H](CCN)C(=O)N[C@H]1CCNC(=O)[C@H]([C@@H](C)O)NC(=O)[C@H](CCN)NC(=O)[C@H](CCN)NC(=O)[C@H](CC(C)C)NC(=O)[C@@H](CC(C)C)NC(=O)[C@H](CCN)NC1=O)[C@@H](C)O [colistin], inactive: 0.995.
